Experimental data reported in patent publication US8697419B2, “Compositions and methods for culturing spirochetes” (Advanced Laboratory Services, Inc., priority 2011, dated 2014).
At least one structure is not confirmed: it was looked up by name or label, or the drawing left a doubt.

Tested on: Borrelia burgdorferi
Assay: Effect of antibiotic concentration on spirochete growth in BSK-H medium, dark-field microscopy
Assay type: cell-based
Settings: 6 days
Method: The cells were cultured for 6 days with different concentration of rabbit serum, DTT and antibiotics, as depicted, and cellular growth was evaluated by direct cell counting of motile spirochetes using dark field microscopy. Each set of data represents three independent experiments (mean±SD). Statistical significance was determined using two-sample paired t-test. The data *p-values<0.05 indicates statistical significance as related to control.
To determine the effect of antibiotic concentration on spirochete growth, Borrelia burgdorferi were cultured in BSK-H medium containing 12% rabbit serum, 100 μg/ml DTT and one of the following antibiotics: 0.5 μg/ml rifampicin, 50 μg/ml rifampicin, a 5 μg/ml rifampicin disc (resulting in final concentration of 0.4 μg/ml), 50 μg/ml phosphomycin, 100 μg/ml phosphomycin, or the combination of 50 μg/ml rifampicin and 50 μg/ml phosphomycin. The spirochetes were incubated in a CO2 incubator at 34° C. with 5% CO2 and 100% humidity for 6 days, at which time spirochete growth was evaluated by dark-field microscopy. […] See, FIG. 2C.

CO[C@H]1/C=C/O[C@@]2(C)Oc3c(C)c(O)c4c(O)c(c(/C=N/N5CCN(C)CC5)c(O)c4c3C2=O)NC(=O)/C(C)=C\C=C\[C@H](C)[C@H](O)[C@@H](C)[C@@H](O)[C@@H](C)[C@H](OC(C)=O)[C@@H]1C [rifampicin]
spirochete yield (high rifampicin concentrations (e.g., 50 μg/ml)): decreased spirochete yield
spirochete yield (rifampicin at low concentration (0.4-0.5 μg/ml), BSK-H, 12% rabbit serum, 100 μg/ml DTT): did not affect spirochete yield significantly
